Earlier results, collected in patent publication US20050288227A1, “Use of thioredoxin measurements for diagnostics and treatments” (priority 2002, published 2005).

Tested on: tumor growth
Conditions: animals; cited from earlier work

Compound: O=C(CCCCCCC(=O)Nc1ccccc1)NO [SAHA, suberoylanilide hydroxamic acid]
- inhibition of tumor growth: effective at inhibiting tumor growth
